No constants are given. Whether binding was seen depends on the method and setting. Binding seen in cells or lysates may run through a third protein. Some entries that bind do so weakly or less than the wild type.
Tests used:
[1] = target: T1, SIGIRR wild type, expressed from pcDNA3-SIGIRR in HIECs (human) (UniProt Q6IA17); test: co-IP; HIECs transfected with pcDNA3 empty vector, pcDNA3-SIGIRR, or pcDNA3-SIGIRR plus pcDNA3-SIGIRR p168X mutant; immunoprecipitation with SIGIRR antibody, Western blot
T1 sequence: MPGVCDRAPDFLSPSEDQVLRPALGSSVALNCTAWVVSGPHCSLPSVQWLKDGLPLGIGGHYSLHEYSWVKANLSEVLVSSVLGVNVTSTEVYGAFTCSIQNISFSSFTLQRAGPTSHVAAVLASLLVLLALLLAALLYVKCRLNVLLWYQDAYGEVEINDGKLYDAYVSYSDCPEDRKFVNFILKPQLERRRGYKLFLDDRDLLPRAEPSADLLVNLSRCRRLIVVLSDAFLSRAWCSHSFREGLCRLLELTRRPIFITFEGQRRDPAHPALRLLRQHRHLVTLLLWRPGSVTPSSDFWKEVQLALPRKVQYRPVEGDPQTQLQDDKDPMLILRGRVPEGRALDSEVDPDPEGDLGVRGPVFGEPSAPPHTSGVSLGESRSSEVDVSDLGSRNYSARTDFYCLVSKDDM

The chains behind the UniProt entries cited, without tags or fusion partners.
UniProt P51617: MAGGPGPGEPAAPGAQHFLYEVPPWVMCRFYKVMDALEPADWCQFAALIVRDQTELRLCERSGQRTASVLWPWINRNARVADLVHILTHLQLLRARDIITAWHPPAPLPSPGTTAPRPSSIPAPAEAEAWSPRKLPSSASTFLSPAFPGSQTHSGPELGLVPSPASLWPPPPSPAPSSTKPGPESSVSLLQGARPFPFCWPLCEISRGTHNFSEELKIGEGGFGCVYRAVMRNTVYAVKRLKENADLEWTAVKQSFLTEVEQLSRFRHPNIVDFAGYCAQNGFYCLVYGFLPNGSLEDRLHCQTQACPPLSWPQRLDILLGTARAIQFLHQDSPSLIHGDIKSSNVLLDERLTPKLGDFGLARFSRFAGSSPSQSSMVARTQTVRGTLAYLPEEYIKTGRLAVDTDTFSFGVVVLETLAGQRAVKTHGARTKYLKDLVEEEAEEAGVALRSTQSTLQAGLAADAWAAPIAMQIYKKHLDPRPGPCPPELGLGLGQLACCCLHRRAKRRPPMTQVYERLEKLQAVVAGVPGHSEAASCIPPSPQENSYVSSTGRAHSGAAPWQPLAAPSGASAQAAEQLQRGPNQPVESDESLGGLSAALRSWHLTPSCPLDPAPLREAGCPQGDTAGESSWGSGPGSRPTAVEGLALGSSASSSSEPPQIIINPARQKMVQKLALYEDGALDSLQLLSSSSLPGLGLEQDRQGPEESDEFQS
UniProt Q99836: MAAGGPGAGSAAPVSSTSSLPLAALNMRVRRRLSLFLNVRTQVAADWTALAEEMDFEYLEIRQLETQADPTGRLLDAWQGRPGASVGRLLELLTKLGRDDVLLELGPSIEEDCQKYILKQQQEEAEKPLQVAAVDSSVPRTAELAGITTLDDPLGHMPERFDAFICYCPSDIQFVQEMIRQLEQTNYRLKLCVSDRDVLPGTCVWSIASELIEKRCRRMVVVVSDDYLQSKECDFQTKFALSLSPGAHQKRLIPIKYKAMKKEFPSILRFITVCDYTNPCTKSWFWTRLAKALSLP

[2] = target: T2, single immunoglobulin interleukin-1-related receptor (SIGIRR), endogenous in HIECs (human (endogenous in HIEC-6)) (UniProt Q6IA17); test: co-IP; HIEC lysates immunoprecipitated by SIGIRR antibody, immunoblot of the complexes; endogenous proteins, at baseline without exogenous TLR ligand; normal IgG as control
T2 sequence: T1 sequence

Substance	binding [1]	binding [2]
interleukin-1-related-associated kinase 1 (IRAK1), endogenous in HIECs (from UniProt P51617 1-712) (enzyme)	binds	binds
myeloid differentiation primary response 88 (MYD88), endogenous in HIECs (from UniProt Q99836 1-296)	binds	binds

Reference: article PMC8688179
